“And” between values parts separate entries of the source, which are not always exact repeats. Equal values may be shown once. Where a SMILES comes first, the peptide text is derived from it. [ ]: non-standard residue; d: D form. Hyp = O=C(O)[C@@H]1C[C@@H](O)CN1
What was measured:
Format in all cases: cell-based, human
MMP-9 = assay: Example 9 Luminex, LPS hPBMCs: MMP-9
Procedure: (§1) Treatment Human PBMCs were pretreated with YY-101, YDE-011 and YDE-043 or reference compound; Xiidra® at various concentration (ranging from 1 nM to 100 uM) for 2 h before stimulation. An equal volume of 0.5% DMSO was used as a vehicle control. Then, the cells were treated with LPS at 5 ug/ml. The supernatants from treated cells were harvested at 24 h and placed in a 96 well for Luminex cytokine & chemokine profiling using a Luminex 200 multiplex assay (Luminex; R&D system, USA).
(§2) The main study arm with triplicate wells per group in a 24-well plate: • 1. Blank • 2. PBMC: 0.5% DMSO • 3. PBMC+LPS (5 ug/ml) • 4. PBMC+YY-101 100 uM • 5. PBMC+YY-101 10 uM • 6. PBMC+YY-101 1 uM • 7. PBMC+YY-101 0.1 uM • 8. PBMC+YY-101 0.01 uM • 9. PBMC+LPS (5 ug/ml)+Xiidra®100 uM • 10. PBMC+LPS (5 ug/ml)+Xiidra® 10 uM • 11. PBMC+LPS (5 ug/ml)+Xiidra® 1 uM • 12. PBMC+LPS (5 ug/ml)+Xiidra®0.1 uM • 13. PBMC+LPS (5 ug/ml)+Xiidra®0.01 uM • 14. PBMC+LPS (5 ug/ml)+Xiidra®0.001 uM • 15. PBMC+LPS (5 ug/ml)+YY-101 100 uM • 16. PBMC+LPS (5 ug/ml)+YY-101 10 uM • 17. PBMC+LPS (5 ug/ml)+YY-101 1 uM • 18. PBMC+LPS (5 ug/ml)+YY-101 0.1 uM • 19. PBMC+LPS (5 ug/ml)+YY-101 0.01 uM • 20. PBMC+LPS (5 ug/ml)+YY-101 0.001 uM • 21. PBMC+LPS (5 ug/ml)+YDE-011 100 uM • 22. PBMC+LPS (5 ug/ml)+YDE-011 10 uM • 23. PBMC+LPS (5 ug/ml)+YDE-011 1 uM • 24. PBMC+LPS (5 ug/ml)+YDE-011 0.1 uM • 25. PBMC+LPS (5 ug/ml)+YDE-011 0.01 uM • 26. PBMC+LPS (5 ug/ml)+YDE-011 0.001 uM • 27. PBMC+LPS (5 ug/ml)+YDE-043 100 uM • 28. PBMC+LPS (5 ug/ml)+YDE-043 10 uM • 29. PBMC+LPS (5 ug/ml)+YDE-043 1 uM • 30. PBMC+LPS (5 ug/ml)+YDE-043 0.1 uM • 31. PBMC+LPS (5 ug/ml)+YDE-043 0.01 uM • 32. PBMC+LPS (5 ug/ml)+YDE-043 0.001 uM
(§3) Multiplex assay was used to measure 30 cytokines and chemokines. The 1:2, 1:10 and 1:200 diluted cell supernatant and serial dilution of the standard were dispensed into a 96 well plate at 50 ul/well. Then, the pre-mixed cocktail of antibody-coated magnetic beads was dispensed at 50 ul/well and incubated at room temperature for 2 h in a horizontal orbital microplate shaker at 800±500 rpm. The beads were washed using a magnetic device to prevent loss. The biotin-antibody was dispensed in 50 ul of each well and incubated at room temperature for 1 h in a shaker at 800±500 rpm. After washing, streptavidin-PE was added at 50 ul/well and incubated at room temperature for 30 min in a shaker under the same conditions. Finally, after washing, wash buffer (100 ul/well) was added to the plate and incubated in a shaker for 2 min. The Luminex™ 200 setting were set according to the manufacturer's protocol. The data was calculated with a standard five-parameter logistic nonlinear regression analysis of the data (xPonent software 4.2, USA). The levels of cytokine/chemokine are normalized to the live cell counts (1×10^5 cells/mL) and presented as concentrations per mL (pg/mL or ng/mL).

IL-8 = assay: Example 9 Luminex, LPS hPBMCs: IL-8; conditions: Bead IL-8
Procedure: as §1, §2, §3

CCL3/MIP-1 alpha = assay: Example 9 Luminex, LPS hPBMCs: CCL3/MIP-1 alpha
Procedure: as §1, §2, §3

[1] = PBMC + LPS(5 ug/ml) + 0.001 uM, Mean
[2] = PBMC + LPS(5 ug/ml) + 0.001 uM, single replicates
[3] = PBMC + LPS(5 ug/ml) + 0.01 uM, Mean
[4] = PBMC + LPS(5 ug/ml) + 0.01 uM, single replicates
[5] = PBMC + LPS(5 ug/ml) + 0.1 uM, Mean
[6] = PBMC + LPS(5 ug/ml) + 0.1 uM, single replicates
[7] = PBMC + LPS(5 ug/ml) + 1 uM, Mean
[8] = PBMC + LPS(5 ug/ml) + 1 uM, single replicates
[9] = PBMC + LPS(5 ug/ml) + 10 uM, Mean
[10] = PBMC + LPS(5 ug/ml) + 10 uM, single replicates
[11] = PBMC + LPS(5 ug/ml) + 100 uM, Mean
[12] = PBMC + LPS(5 ug/ml) + 100 uM, single replicates
[13] = PBMC + LPS(5 ug/ml) + test article 0.001 uM, Mean
[14] = PBMC + LPS(5 ug/ml) + test article 0.001 uM, single replicates (1st, 2nd, 3rd)
[15] = PBMC + LPS(5 ug/ml) + test article 0.01 uM, Mean
[16] = PBMC + LPS(5 ug/ml) + test article 0.01 uM, single replicates (1st, 2nd, 3rd)
[17] = PBMC + LPS(5 ug/ml) + test article 0.1 uM, Mean
[18] = PBMC + LPS(5 ug/ml) + test article 0.1 uM, single replicates (1st, 2nd, 3rd)
[19] = PBMC + LPS(5 ug/ml) + test article 1 uM, Mean
[20] = PBMC + LPS(5 ug/ml) + test article 1 uM, single replicates (1st, 2nd, 3rd)
[21] = PBMC + LPS(5 ug/ml) + test article 10 uM, Mean
[22] = PBMC + LPS(5 ug/ml) + test article 10 uM, single replicates (1st, 2nd, 3rd)
[23] = PBMC + LPS(5 ug/ml) + test article 100 uM, Mean
[24] = PBMC + LPS(5 ug/ml) + test article 100 uM, single replicates (1st, 2nd, 3rd)
[25] = PBMC + LPS(5 ug/ml) + test article 0.001 uM, individual replicates
[26] = PBMC + LPS(5 ug/ml) + test article 0.01 uM, individual replicates
[27] = PBMC + LPS(5 ug/ml) + test article 0.1 uM, individual replicates
[28] = PBMC + LPS(5 ug/ml) + test article 1 uM, individual replicates
[29] = PBMC + LPS(5 ug/ml) + test article 10 uM, individual replicates
[30] = PBMC + LPS(5 ug/ml) + test article 100 uM, individual replicates

| Structure (SMILES) | MMP-9 MFI (MMP-9; [1]) | MMP-9 MFI (MMP-9; [2]) | MMP-9 MFI (MMP-9; [3]) | MMP-9 MFI (MMP-9; [4]) | MMP-9 MFI (MMP-9; [5]) | MMP-9 MFI (MMP-9; [6]) | MMP-9 MFI (MMP-9; [7]) | MMP-9 MFI (MMP-9; [8]) | MMP-9 MFI (MMP-9; [9]) | MMP-9 MFI (MMP-9; [10]) | MMP-9 MFI (MMP-9; [11]) | MMP-9 MFI (MMP-9; [12]) | MFI (IL-8; [13]) | MFI (IL-8; [14]) | MFI (IL-8; [15]) | MFI (IL-8; [16]) | MFI (IL-8; [17]) | MFI (IL-8; [18]) | MFI (IL-8; [19]) | MFI (IL-8; [20]) | further results |
| --- | --- | --- | --- | --- | --- | --- | --- | --- | --- | --- | --- | --- | --- | --- | --- | --- | --- | --- | --- | --- | --- |
| CC(C)C[C@H](NC(=O)[C@H](CCC(N)=O)NC(=O)CNC(=O)[C@@H]1C[C@@H](O)CN1)C(=O)NCC(=O)O [YDE-043] (H-[Hyp]GQLG-OH; N-terminus and C-terminus assumed) | 47.7 | 39.0 and 49.5 and 54.5 | 41.5 | 40.5 and 41.5 and 42.5 | 39.5 | 42.5 and 36.5 and 39.5 | 40.2 | 43.5 and 36.5 and 40.5 | 42.0 | 43.5 and 42.5 and 40.0 | 34.0 | 35.5 and 32.5 | 915.5 | 841.0 and 932.5 and 973.0 | 921.8 | 928.5 and 897.5 and 939.5 | 886.8 | 912.0 and 822.0 and 926.5 | 877.3 | 912.5 and 765.5 and 954.0 | MFI (IL-8; [21]): 971.5; MFI (IL-8; [22]): 960.5 and 1141.5 and 812.5; MFI (IL-8; [23]): 847.0; MFI (IL-8; [24]): 895.5 and 798.5; MFI (CCL3/MIP-1 alpha; [13]): 151.5; MFI (CCL3/MIP-1 alpha; [25]): 139.0 and 163.0 and 152.5; MFI (CCL3/MIP-1 alpha; [15]): 149.2; MFI (CCL3/MIP-1 alpha; [26]): 145.5 and 153.5 and 148.5; MFI (CCL3/MIP-1 alpha; [17]): 139.3; MFI (CCL3/MIP-1 alpha; [27]): 134.0 and 138.5 and 145.5; MFI (CCL3/MIP-1 alpha; [19]): 139.8; MFI (CCL3/MIP-1 alpha; [28]): 152.5 and 110.5 and 156.5; MFI (CCL3/MIP-1 alpha; [21]): 137.8; MFI (CCL3/MIP-1 alpha; [29]): 133.5 and 131.5 and 148.5; MFI (CCL3/MIP-1 alpha; [23]): 144.5; MFI (CCL3/MIP-1 alpha; [30]): 152.5 and 136.5 |
| CC(C)C[C@H](NC(=O)CNC(=O)[C@H](CC(C)C)NC(=O)[C@H](CCC(N)=O)NC(=O)CNC(=O)[C@@H]1C[C@@H](O)CN1)C(=O)N[C@@H](C)C(=O)NCC(=O)N1CCC[C@H]1C(=O)N[C@@H](CCCCN)C(=O)O [YDE-011] (H-[Hyp]GQLGLAGPK-OH) | 44.8 | 48.5 and 41.5 and 44.5 | 40.5 | 39.5 (2×) and 42.5 | 40.5 | 42.5 and 39.5 (2×) | 41.8 | 42.5 (2×) and 40.5 | 42.2 | 41.5 (2×) and 43.5 | 38.5 | 38.5 and 39.5 and 37.5 | 868.8 | 861.5 and 838.5 and 906.5 | 923.5 | 964.0 and 900.5 and 906.0 | 858.8 | 852.5 and 870.5 and 853.5 | 851.0 | 872.0 and 875.5 and 805.5 | MFI (IL-8; [21]): 834.0; MFI (IL-8; [22]): 851.0 and 841.5 and 809.5; MFI (IL-8; [23]): 864.3; MFI (IL-8; [24]): 918.5 and 881.5 and 793.0; MFI (CCL3/MIP-1 alpha; [13]): 132.7; MFI (CCL3/MIP-1 alpha; [25]): 134.5 and 126.5 and 137.0; MFI (CCL3/MIP-1 alpha; [15]): 136.8; MFI (CCL3/MIP-1 alpha; [26]): 137.5 and 134.5 and 138.5; MFI (CCL3/MIP-1 alpha; [17]): 118.3; MFI (CCL3/MIP-1 alpha; [27]): 113.5 and 127.0 and 114.5; MFI (CCL3/MIP-1 alpha; [19]): 135.0; MFI (CCL3/MIP-1 alpha; [28]): 129.5 and 138.0 and 137.5; MFI (CCL3/MIP-1 alpha; [21]): 143.2; MFI (CCL3/MIP-1 alpha; [29]): 152.5 and 128.5 and 148.5; MFI (CCL3/MIP-1 alpha; [23]): 153.0; MFI (CCL3/MIP-1 alpha; [30]): 164.5 and 157.0 and 137.5 |
